Measured values taken from PMC11115967.
Results are given in words; binding and its absence hold for the method and conditions named. For part of these data: Binding seen in cells or lysates may run through a third protein. Some results given as binding are weak or reduced against the parent protein; the word gives no strength. For part of these data: Sequences can lack the tags named with a protein.

The chains behind the UniProt entries cited, without tags or fusion partners.
UniProt P33334: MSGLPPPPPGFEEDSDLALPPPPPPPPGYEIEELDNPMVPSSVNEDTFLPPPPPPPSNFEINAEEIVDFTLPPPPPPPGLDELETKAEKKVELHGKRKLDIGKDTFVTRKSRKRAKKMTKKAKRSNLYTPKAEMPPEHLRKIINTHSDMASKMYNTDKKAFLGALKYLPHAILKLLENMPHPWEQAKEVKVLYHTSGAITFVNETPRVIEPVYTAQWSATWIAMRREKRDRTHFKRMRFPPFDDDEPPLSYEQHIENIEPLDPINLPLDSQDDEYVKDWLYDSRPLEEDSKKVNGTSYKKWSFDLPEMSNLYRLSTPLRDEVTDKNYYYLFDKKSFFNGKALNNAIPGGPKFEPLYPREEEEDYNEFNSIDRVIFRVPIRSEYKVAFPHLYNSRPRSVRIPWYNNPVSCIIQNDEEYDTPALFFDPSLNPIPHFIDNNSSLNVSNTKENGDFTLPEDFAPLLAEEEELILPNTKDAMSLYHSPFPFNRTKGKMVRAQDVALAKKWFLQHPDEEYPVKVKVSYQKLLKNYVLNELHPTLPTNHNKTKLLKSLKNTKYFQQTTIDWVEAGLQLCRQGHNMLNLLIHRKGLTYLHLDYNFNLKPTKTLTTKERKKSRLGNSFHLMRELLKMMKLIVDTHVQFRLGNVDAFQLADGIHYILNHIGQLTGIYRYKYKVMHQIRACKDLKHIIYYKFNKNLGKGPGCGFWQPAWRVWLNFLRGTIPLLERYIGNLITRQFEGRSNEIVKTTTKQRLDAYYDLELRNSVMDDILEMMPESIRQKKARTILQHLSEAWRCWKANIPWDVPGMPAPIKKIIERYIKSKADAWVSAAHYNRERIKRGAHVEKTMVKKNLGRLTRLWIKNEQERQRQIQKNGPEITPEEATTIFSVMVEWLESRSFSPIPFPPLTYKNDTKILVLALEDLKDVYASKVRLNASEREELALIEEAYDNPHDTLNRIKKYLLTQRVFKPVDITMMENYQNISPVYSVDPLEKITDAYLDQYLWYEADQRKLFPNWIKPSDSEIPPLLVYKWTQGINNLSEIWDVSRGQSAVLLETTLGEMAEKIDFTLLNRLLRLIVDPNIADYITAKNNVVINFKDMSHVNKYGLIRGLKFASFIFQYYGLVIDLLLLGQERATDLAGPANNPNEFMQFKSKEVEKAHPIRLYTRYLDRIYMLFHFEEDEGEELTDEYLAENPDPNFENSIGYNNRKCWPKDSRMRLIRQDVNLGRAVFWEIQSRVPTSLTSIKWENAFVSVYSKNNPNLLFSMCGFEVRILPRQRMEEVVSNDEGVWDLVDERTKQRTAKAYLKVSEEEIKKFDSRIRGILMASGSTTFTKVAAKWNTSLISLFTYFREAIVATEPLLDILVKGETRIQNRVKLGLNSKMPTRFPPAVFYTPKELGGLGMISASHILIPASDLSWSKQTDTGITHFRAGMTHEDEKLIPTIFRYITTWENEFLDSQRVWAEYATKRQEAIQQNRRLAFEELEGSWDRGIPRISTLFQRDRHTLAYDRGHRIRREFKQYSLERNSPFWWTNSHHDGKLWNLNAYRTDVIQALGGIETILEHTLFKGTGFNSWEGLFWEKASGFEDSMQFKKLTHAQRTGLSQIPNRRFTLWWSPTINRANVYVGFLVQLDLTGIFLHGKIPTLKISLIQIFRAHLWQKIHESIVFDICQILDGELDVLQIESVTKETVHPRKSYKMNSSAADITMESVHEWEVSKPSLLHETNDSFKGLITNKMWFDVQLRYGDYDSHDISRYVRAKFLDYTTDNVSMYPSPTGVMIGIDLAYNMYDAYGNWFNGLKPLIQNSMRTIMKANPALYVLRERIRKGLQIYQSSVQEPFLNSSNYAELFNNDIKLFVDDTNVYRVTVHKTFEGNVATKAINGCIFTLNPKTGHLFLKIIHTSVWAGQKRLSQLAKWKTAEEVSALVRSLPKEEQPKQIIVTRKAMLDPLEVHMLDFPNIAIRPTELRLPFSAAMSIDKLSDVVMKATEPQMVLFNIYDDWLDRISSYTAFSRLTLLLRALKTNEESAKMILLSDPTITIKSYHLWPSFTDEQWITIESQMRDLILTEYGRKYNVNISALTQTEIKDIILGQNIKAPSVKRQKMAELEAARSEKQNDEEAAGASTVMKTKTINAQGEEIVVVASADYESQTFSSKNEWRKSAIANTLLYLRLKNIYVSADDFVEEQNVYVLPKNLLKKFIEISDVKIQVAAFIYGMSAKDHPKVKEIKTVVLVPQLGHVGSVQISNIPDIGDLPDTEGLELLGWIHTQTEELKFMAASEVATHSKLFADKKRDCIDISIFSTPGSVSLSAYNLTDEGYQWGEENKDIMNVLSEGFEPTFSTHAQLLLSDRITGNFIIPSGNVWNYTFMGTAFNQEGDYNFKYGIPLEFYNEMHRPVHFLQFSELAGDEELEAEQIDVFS

T1: hexa-HA-tagged Prp4p (S. cerevisiae) (UniProt P20053)
T1 sequence: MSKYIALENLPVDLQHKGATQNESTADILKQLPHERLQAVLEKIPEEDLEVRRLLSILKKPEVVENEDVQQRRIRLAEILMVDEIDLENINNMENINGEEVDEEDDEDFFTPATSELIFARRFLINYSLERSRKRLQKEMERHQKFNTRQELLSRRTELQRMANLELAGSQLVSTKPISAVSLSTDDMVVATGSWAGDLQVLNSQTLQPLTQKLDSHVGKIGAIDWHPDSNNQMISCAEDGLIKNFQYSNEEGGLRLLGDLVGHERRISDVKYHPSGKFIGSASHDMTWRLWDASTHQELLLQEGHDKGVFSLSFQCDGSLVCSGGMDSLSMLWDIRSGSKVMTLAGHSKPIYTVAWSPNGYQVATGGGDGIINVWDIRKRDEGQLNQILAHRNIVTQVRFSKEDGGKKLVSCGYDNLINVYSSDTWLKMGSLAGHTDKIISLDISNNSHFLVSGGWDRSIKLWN

T2: Rrp47-TAP (S. cerevisiae) (UniProt P38801)
T2 sequence: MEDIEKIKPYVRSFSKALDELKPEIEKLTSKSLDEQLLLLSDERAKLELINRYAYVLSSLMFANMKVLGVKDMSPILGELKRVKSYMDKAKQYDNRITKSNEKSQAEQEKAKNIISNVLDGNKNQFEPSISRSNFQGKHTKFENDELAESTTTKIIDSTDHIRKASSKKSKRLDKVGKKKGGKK

T3: Rrp4p (S. cerevisiae) (UniProt P38792)
T3 sequence: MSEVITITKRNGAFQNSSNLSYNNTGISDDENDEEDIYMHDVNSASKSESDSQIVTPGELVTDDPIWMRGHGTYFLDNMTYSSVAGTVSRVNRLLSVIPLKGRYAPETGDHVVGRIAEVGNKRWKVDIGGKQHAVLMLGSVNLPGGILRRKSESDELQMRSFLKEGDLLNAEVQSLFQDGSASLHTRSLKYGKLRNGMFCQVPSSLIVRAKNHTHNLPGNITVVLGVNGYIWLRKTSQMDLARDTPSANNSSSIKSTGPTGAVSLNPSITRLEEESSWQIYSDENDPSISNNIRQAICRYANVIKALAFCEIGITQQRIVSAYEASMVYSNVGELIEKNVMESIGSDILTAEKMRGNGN

B1: Spp381p (protein, UniProt P38282 1-291)
chain: MSFRHFKRRLDTSSADESSSADEEHPDQNVSLTEKSASLSHSDLGGEILNGTGKNRTPNDGQESNESDGSPESDESPESEESSDNSDSSDSDDMRPLPRPLFMKKKANNLQKATKIDQPWNAQDDARVLQTKKENMIKNIDKANQVAKNYETMKLRLNTNYSTNEELIKQCLLLDDNDEVDSEKERQKWFERQNERKQKHRRIQLAKQRESEEYEAKRFEAMQKGKDGNTKYDVILDKEKEKLDHKKQRSAEKVEKSHNNNRYKITRTKNVEFGDLGKNSRDYEETEYSVI
B2: Rrp6p-ΔC2 (domain or fragment, UniProt Q12149 1-522)
chain: MTSENPDVLLSRVINVVRAASSLASQDVDFYKNLDRGFSKDLKSKADKLADMANEIILSIDEHHESFELKEEDISDLWNNFGNIMDNLLEMSDHSLDKLNCAINSKSRGSDLQYLGEFSGKNFSPTKRVEKPQLKFKSPIDNSESHPFIPLLKEKPNALKPLSESLRLVDDDENNPSHYPHPYEYEIDHQEYSPEILQIREEIPSKSWDDSVPIWVDTSTELESMLEDLKNTKEIAVDLEHHDYRSYYGIVCLMQISTRERDYLVDTLKLRENLHILNEVFTNPSIVKVFHGAFMDIIWLQRDLGLYVVGLFDTYHASKAIGLPRHSLAYLLENFANFKTSKKYQLADWRIRPLSKPMTAYARADTHFLLNIYDQLRNKLIESNKLAGVLYESRNVAKRRFEYSKYRPLTPSSEVYSPIEKESPWKILMYQYNIPPEREVLVRELYQWRDLIARRDDESPRFVMPNQLLAALVAYTPTDVIGVVSLTNGVTEHVRQNAKLLANLIRDALRNIKNTNEEATPI
B3: Rrp4p (protein, UniProt P38792 1-359)
chain: T3 sequence
B4: Nrd1p (protein, UniProt P53617 1-575)
chain: MQQDDDFQNFVATLESFKDLKSGISGSRIKKLTTYALDHIDIESKIISLIIDYSRLCPDSHKLGSLYIIDSIGRAYLDETRSNSNSSSNKPGTCAHAINTLGEVIQELLSDAIAKSNQDHKEKIRMLLDIWDRSGLFQKSYLNAIRSKCFAMDISNNTANTASQQLSLDPKQRSKQILSNLKKSPPLNLNISLPTDLTSTDPAKQQAALFQVIAALQKHFKTLPSHTSVGTVAPPQAHTITEYGSRRERERERERYNSRRNRSRSPPAPFSQPSTGRKDRYPSVAQDQYSIGAPNTTFGTNNHHLYPDELNVSNNPHYRPKPVSYDSTLPPDHIKVYSRTLFIGGVPLNMKEWDLANVLKPFAEVQSVILNNSRKHAFVKVYSRHEAENVLQNFNKDGALPLRTRWGVGFGPRDCCDYQHGYSIIPMHRLTDADKKWSVSAQWGGTSGQPLVTGIVFEEPDIIVGEGVSSKAISQKMPTDSGRNGPRSGKPNKSGSISSISPVPYGNAPLASPPPQQYVQPMMQQPYGYAPNQPLPSQGPAAAAPPVPQQQFDPTAQLNSLMNMLNQQQQQQQQS

What was measured:
[1] = target: T1, hexa-HA-tagged Prp4p (S. cerevisiae); assay: co-IP; immunopurification of the spliceosome: 1 mg extract of UV-irradiated WT (yBD608) and rrp6-Δ (yBD614) cells with genomically hexa-HA-tagged Prp4p, anti-HA antibody, protein A-agarose, 4°C; western blot
[2] = target: T2, Rrp47-TAP (S. cerevisiae); assay: SEC; Biogel P-200 gel filtration (0.2 M Tris-HCl pH 8.0, 0.2 M NaCl) of extract of UV-irradiated yeast expressing Rrp6-ΔC2 and Rrp47-TAP (yBD-527); fractions blotted with anti-Rrp4p, anti-Rrp6p and anti-TAP
Rrp4p (S. cerevisiae) = target: T3, Rrp4p (S. cerevisiae); assay: as above
[3] = target: T2, Rrp47-TAP (S. cerevisiae); assay: condition: only in gel-filtration fractions 13-18 (legend: 11 to 18); co-IP; fractions 11 to 18 of the Biogel P-200 column (yBD-507 extract) precipitated with anti-TAP antibody and blotted with anti-TAP, anti-Rrp4p and anti-Mtr4p

Molecule	binding [1]	also measured
Prp8p (from UniProt P33334 1-2413)	binds	
B1	binds	
B2		binding [2]: binds; binding (Rrp4p (S. cerevisiae)): no binding
B3		binding [3]: no binding
B4	no binding	
